Data taken from patent US20100310576A1.
Results are given in words; binding and its absence hold for the method and conditions named. Some binding calls cover weakened binding; strength is not graded here. Where a sequence is shown, tags or fusion partners need not be part of it.

Amino acid sequences for entries named in this document (tags omitted). Residues count along the entry.
UniProt O00206, residues 24-839: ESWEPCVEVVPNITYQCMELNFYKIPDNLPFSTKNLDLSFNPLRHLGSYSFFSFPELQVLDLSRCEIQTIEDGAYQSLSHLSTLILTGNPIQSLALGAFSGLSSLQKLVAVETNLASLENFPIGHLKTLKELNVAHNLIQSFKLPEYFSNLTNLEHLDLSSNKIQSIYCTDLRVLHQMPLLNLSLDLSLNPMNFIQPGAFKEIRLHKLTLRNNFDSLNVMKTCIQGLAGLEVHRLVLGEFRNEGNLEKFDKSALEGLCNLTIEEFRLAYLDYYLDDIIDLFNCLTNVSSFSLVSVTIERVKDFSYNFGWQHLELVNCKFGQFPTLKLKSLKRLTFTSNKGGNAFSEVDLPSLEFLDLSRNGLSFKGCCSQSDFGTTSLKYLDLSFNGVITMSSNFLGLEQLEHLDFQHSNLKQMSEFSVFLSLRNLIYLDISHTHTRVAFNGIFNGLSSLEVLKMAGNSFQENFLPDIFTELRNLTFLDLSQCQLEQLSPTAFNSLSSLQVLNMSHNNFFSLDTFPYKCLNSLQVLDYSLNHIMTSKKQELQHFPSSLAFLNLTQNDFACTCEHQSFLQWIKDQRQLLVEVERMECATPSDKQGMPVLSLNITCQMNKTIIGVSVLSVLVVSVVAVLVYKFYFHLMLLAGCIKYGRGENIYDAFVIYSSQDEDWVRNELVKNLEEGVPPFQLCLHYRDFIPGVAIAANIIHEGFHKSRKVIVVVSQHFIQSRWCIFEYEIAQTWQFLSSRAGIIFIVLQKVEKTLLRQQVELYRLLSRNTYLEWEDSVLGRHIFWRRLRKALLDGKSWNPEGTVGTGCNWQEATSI
UniProt O60603: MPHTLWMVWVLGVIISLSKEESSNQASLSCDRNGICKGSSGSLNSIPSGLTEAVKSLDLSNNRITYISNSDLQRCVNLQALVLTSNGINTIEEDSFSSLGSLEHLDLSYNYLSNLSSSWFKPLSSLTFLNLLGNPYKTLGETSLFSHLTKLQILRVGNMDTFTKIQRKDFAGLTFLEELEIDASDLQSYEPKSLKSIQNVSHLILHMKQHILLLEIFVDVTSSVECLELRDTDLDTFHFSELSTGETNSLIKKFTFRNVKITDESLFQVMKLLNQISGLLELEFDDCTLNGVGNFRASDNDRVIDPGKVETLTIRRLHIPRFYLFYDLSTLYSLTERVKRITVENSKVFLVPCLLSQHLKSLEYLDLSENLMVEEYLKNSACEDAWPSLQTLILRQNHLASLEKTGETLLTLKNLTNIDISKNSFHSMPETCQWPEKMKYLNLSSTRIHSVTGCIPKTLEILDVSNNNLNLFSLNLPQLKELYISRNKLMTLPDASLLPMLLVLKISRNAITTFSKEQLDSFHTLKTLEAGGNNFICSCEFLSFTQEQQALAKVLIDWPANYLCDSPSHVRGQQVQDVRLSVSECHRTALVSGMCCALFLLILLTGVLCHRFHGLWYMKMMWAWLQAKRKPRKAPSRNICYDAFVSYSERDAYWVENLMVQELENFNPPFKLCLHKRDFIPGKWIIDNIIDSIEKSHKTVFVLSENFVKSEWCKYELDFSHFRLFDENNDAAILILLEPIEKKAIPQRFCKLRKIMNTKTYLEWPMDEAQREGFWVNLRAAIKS

Key:
[1] = target: toll-like receptor 4 (TLR4) (UniProt O00206); experiment: flow cytometry, V5-tagged D1 (100 nM) on HEK293 cells stably expressing TLR4, FITC-V5 detection
[2] = target: toll-like receptor 2 (TLR2) (UniProt O60603); experiment: flow cytometry, V5-tagged D1 (100 nM) on HEK293 cells stably expressing TLR2, FITC-V5 detection
[3] = target: toll-like receptor 4 (TLR4) (UniProt O00206); experiment: flow cytometry on HEK cells over-expressing TLR4 (FIG. 14C legend)
[4] = target: toll-like receptor 2 (TLR2) (UniProt O60603); experiment: flow cytometry on HEK cells over-expressing TLR2 (FIG. 14C legend)

binding [1]: binds
binding [2]: binds
binding [3]: binds
binding [4]: binds
B1: V5-tagged D1 (protein, not shown: small tags and cut ends)
chain: MPSASASRKSQEKPREIMDAAEDYAKERYGISSMIQSQEKPDRVLVRVRDLTIQKADEVVWVRARVHTSRAKGKQCFLVLRQQQFNVQALVAVGDHASKQMVKFAANINKESIVDVEGVVRKVNQKIGSCTQQDVELHVQKIYVISLAEPRLPL
